{"source": "patent US9981897B2", "about": "“Ethers of bis(hydroxymethyl)cyclohexanes” (BASF SE, priority 2011, dated 2018)", "assay": "dissolution / solvent properties for ingredients of fragrance-comprising preparations", "assay_type": "physicochemical", "conditions": "for other fragrances and other customary ingredients in fragrance-comprising preparations such as perfumes", "text": "The term “exceptional dissolution properties” refers to the solubility and also the solubilization in the perfumery application, i.e. both in the perfume oil itself, and also in the application matrix, such as soaps, creams, deodorants and others.\n“Exceptional” dissolution properties are present for example if virtually all customary substances which can be used in such formulations are soluble in the solvent. “Good” dissolution properties are present if virtually all important substances which are used in such formulations are soluble in this solvent. “Moderate” dissolution properties are present if only a small fraction of the important substances is soluble or dispersible. Such substances, their importance and also the testing of the solubility in solvents are known to the person skilled in the art.", "note": "At least one structure is not confirmed: it was looked up by name or label, or the drawing left a doubt.", "data": [{"smiles": "CCOCC1CCC(COCC)CC1", "note": "(stereo not shown) [Compound I, cyclohexanedimethanol diethyl ether]", "values": [{"measurement": "solvent properties", "result": "particularly good, virtually universal"}]}]}
